How the values were obtained:
[1] = target: Protein kinase C gamma type (Homo sapiens, UniProt P05129)
[2] = target: Serine/threonine-protein kinase Chk2 (Homo sapiens, UniProt O96017)
[3] = target: Cyclin-dependent kinase 1 (Homo sapiens, UniProt P06493)
[4] = target: Proto-oncogene tyrosine-protein kinase Src (Homo sapiens, UniProt P12931)
[5] = target: T1, Serine/threonine-protein kinase MARK2 (Homo sapiens, UniProt Q7KZI7)
T1 sequence (Q7KZI7 whole entry): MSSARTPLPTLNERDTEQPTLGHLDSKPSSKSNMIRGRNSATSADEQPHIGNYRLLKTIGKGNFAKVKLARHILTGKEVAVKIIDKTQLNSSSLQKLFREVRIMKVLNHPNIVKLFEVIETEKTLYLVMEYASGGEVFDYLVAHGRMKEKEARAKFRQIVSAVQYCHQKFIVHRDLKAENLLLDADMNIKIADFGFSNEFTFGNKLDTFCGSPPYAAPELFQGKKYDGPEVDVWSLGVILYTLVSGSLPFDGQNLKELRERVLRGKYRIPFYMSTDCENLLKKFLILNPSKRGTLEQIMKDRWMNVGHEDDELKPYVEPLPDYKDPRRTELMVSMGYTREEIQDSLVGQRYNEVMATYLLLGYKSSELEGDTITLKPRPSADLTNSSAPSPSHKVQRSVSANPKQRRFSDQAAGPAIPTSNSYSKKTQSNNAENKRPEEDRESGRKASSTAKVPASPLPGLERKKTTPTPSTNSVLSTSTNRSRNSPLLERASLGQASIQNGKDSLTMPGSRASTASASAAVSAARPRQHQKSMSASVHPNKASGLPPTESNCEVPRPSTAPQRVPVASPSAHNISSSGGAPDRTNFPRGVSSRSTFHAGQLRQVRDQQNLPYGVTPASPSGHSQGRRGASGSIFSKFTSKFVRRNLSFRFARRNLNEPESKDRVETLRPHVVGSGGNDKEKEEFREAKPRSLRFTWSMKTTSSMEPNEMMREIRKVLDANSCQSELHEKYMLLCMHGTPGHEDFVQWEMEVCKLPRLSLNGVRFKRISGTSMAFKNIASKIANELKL

Protein sequences, listed by entry. Tags and fused reporters are not part of them. Lines headed by an entry give the natural chain unless they say otherwise; changes in a name come on top.
UniProt O96017, whole entry: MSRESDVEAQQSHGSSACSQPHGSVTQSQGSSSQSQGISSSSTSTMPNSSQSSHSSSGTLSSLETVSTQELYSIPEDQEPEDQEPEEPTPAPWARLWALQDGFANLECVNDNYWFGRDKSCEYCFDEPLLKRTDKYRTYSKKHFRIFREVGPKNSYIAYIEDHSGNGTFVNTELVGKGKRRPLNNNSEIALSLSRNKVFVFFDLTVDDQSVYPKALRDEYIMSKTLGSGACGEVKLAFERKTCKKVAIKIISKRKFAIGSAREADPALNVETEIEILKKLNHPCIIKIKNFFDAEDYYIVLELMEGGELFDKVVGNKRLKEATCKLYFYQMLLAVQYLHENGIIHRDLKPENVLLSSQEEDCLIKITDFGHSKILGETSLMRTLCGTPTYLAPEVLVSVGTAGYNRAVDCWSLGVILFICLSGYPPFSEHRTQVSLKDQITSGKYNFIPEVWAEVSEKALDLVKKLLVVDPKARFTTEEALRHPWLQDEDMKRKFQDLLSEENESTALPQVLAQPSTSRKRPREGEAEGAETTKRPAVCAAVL
UniProt P06493, whole entry: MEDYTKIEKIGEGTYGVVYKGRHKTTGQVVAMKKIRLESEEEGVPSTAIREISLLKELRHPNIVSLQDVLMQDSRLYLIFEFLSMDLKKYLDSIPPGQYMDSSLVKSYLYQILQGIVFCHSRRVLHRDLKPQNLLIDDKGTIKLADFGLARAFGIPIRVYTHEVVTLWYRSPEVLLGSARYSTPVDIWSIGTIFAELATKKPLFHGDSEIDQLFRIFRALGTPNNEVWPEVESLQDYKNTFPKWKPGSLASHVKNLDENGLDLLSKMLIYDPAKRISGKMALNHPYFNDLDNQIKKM
UniProt P12931: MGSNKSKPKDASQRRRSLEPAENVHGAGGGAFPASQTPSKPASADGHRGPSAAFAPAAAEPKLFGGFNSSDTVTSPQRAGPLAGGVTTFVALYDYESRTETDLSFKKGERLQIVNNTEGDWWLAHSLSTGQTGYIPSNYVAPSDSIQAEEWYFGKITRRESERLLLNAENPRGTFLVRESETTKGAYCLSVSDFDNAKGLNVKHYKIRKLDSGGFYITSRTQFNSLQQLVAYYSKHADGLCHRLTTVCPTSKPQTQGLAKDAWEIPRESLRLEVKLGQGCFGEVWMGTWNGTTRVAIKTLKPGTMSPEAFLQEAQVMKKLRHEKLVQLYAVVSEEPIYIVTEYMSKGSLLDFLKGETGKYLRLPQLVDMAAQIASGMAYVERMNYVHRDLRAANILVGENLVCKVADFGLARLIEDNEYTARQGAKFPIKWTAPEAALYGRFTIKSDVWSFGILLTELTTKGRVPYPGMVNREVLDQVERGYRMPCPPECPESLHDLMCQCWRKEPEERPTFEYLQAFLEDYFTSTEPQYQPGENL
UniProt Q05655: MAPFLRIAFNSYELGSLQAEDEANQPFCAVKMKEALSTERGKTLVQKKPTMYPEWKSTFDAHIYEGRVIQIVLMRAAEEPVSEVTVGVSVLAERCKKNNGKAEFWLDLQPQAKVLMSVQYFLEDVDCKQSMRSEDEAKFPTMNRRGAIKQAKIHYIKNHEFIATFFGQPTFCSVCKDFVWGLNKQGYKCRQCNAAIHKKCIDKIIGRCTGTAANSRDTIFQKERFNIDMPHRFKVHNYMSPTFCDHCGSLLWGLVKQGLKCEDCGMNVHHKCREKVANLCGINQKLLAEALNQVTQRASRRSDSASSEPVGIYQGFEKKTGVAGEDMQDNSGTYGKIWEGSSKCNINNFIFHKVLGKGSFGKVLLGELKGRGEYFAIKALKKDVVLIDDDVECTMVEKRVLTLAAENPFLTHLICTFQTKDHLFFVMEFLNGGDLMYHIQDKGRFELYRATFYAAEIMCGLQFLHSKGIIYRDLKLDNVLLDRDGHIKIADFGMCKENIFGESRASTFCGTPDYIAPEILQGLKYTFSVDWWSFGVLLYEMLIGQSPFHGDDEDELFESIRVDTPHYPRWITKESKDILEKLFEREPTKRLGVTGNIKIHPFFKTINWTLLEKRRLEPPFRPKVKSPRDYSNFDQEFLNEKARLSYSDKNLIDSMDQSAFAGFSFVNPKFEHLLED
UniProt P28482, whole entry: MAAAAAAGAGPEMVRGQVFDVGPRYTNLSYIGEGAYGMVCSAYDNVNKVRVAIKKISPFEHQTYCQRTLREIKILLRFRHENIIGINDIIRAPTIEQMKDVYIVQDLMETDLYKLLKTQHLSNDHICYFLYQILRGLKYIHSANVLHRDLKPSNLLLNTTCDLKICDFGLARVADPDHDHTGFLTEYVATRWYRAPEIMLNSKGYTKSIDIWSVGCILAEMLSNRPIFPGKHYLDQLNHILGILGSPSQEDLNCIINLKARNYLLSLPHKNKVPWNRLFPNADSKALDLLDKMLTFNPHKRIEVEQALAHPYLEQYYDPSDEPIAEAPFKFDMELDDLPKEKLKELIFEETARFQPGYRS
UniProt P49137, whole entry: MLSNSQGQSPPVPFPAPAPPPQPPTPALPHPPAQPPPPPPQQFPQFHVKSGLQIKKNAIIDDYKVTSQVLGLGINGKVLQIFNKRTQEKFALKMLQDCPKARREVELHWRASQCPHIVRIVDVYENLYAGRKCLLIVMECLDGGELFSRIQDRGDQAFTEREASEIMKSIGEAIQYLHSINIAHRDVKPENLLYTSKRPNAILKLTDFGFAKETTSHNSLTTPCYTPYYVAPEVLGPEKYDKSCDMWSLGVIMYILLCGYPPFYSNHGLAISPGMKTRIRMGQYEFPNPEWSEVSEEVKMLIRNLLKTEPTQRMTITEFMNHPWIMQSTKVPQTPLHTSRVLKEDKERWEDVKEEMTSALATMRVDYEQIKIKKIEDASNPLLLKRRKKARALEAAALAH
UniProt P19784, whole entry: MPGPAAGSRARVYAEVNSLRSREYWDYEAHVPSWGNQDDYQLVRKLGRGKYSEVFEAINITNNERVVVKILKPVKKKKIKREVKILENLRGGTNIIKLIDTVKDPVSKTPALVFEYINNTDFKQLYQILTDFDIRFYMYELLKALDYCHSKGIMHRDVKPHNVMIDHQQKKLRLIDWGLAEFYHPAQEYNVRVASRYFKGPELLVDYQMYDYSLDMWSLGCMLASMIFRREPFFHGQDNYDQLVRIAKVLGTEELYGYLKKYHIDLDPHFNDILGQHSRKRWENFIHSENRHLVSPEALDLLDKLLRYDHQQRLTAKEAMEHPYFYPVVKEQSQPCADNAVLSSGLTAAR
UniProt P67870, whole entry: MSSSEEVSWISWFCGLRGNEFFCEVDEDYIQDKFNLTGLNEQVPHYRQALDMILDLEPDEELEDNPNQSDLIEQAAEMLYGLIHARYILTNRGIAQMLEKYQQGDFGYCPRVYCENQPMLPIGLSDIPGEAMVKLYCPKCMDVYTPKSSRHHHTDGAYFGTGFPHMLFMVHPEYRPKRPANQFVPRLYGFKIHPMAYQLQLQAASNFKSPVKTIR
UniProt P68400, whole entry: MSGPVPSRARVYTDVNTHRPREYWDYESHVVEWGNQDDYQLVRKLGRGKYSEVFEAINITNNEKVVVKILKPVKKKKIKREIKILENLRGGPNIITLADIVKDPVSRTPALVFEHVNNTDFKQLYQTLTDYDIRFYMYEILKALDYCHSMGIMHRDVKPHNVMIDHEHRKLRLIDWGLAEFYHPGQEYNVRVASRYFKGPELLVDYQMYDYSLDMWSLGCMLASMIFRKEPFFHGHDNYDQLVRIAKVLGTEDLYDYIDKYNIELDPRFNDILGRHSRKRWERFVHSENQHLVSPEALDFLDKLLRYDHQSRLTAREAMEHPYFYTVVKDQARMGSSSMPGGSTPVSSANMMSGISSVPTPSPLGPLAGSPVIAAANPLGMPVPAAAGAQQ

[6] = target: Protein kinase C delta type (Homo sapiens, UniProt Q05655)
[7] = target: Mitogen-activated protein kinase 1 (Homo sapiens, UniProt P28482)
[8] = target: T2, Serine/threonine-protein kinase Sgk1 (Homo sapiens, UniProt O00141)
T2 sequence (O00141 whole entry): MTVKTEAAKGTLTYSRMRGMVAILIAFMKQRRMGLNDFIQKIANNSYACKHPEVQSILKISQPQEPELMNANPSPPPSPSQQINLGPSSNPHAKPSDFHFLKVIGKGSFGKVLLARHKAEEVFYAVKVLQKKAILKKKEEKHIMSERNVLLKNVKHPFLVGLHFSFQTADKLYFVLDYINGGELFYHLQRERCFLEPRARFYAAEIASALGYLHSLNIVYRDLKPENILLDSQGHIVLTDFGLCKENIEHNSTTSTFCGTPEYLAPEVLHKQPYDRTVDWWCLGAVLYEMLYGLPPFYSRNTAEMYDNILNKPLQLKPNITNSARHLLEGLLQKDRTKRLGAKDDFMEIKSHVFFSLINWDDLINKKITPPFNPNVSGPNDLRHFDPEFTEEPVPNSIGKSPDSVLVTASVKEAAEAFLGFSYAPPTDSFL

[9] = target: MAP kinase-activated protein kinase 2 (Homo sapiens, UniProt P49137)
Casein kinase II = Casein kinase II (Homo sapiens, UniProt P19784+P67870+P68400)

Row | Compound | IC50 [1] [µM] | IC50 [2] [µM] | IC50 [3] [µM] | IC50 [4] [µM] | IC50 [5] [µM] | IC50 [6] [µM] | IC50 [7] [µM] | IC50 [8] [µM] | IC50 [9] [µM] | IC50 (Casein kinase II) [µM]
1 | O=C(NCc1ccncc1)c1ccc2c(c1)Cc1c(-c3ccc(-c4ccc(O)cc4)cc3)n[nH]c1-2 | 4.9 | 10.3 | > 50 | > 50 | 4.59 | > 50 | > 50 | 15 |  | 
2 | O=C(N[C@H]1CC[C@H](O)CC1)c1ccc2c(c1)Cc1c(-c3ccc(-c4ccc(O)cc4)cc3)n[nH]c1-2 | > 33 | > 50 | > 50 | > 50 | > 50 | > 50 | > 50 | 1.32 | > 50 | 41

Source: ChEMBL document CHEMBL1147174, “Discovery of 1,4-dihydroindeno[1,2-c]pyrazoles as a novel class of potent and selective checkpoint kinase 1 inhibitors” (Bioorg Med Chem, 2007)
